Assay results as given in the supplement of paper PMC4604168 (melanoma cell lines).
This is one part of the list. Many values rest on one well or one pass, so single values are uncertain.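 The apoptosis fraction was the count of cleaved-PARP antibody-stained nuclei relative to all DNA-stained nuclei, imaged in 1,536-well plates. Screening doses were set so most cells survived, and baseline and induced cleaved-PARP levels vary greatly across cell lines.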

What follows are compounds tested on UACC62 (assay: cleaved PARP positive nuclei fraction relative to DMSO control; melanoma cells; higher = more apoptosis). Details: library dose: low library concentration; 72 h.
In the case of CC(C)C[C@H](NC(=O)[C@H](Cc1ccccc1)NC(=O)c1cnccn1)B(O)O [Bortezomib] + COc1cc2ncnc(Nc3ccc(Oc4ccccc4)cc3)c2cc1OC [SrcI1] (first compound 0.001 µM, partner dose 2 µM), the “cleaved PARP positive nuclei fraction” value is reported as 67.6%. With CC(C)C[C@H](NC(=O)[C@H](Cc1ccccc1)NC(=O)c1cnccn1)B(O)O [Bortezomib] + C[C@@H]1CCN(C(=O)CC#N)C[C@@H]1N(C)c1ncnc2[nH]ccc12 [CP690550] (first compound 0.001 µM, partner dose 1 µM) the “cleaved PARP positive nuclei fraction” value was 18.9%. CNC(=O)c1cc(Oc2ccc(NC(=O)Nc3ccc(Cl)c(C(F)(F)F)c3)cc2)ccn1 [sorafenib] + c1cc(-c2cnn3cc(-c4ccc(OCCN5CCCCC5)cc4)cnc23)ccn1 [Dorsomorphin] (first compound 0.4 µM, partner dose 0.4 µM) was tested, and the “cleaved PARP positive nuclei fraction” value was 101%. With O=C(O)c1ccc2c(c1)nc(Nc1cccc(Cl)c1)c1ccncc12 + O=C(Nc1cccc(Cl)c1)Nc1ncc(CCNc2ncnc3ccsc23)s1 [SNS314] (first compound 0.4 µM, partner dose 0.0008 µM) the “cleaved PARP positive nuclei fraction” value was 143%. CCCS(=O)(=O)Nc1ccc(F)c(C(=O)c2c[nH]c3ncc(Cl)cc23)c1F + CCc1ccc(CCOc2ccc(CC3SC(=O)NC3=O)cc2)nc1 [pioglitazone] (first compound 0.08 µM, partner dose 2 µM) was tested, and the “cleaved PARP positive nuclei fraction” value was 156%. For O=C(O)c1ccc2c(c1)nc(Nc1cccc(Cl)c1)c1ccncc12 + CC(C)(C)c1cnc(CSc2cnc(NC(=O)C3CCNCC3)s2)o1 [SNS-032] (first compound 0.4 µM, partner dose 0.01 µM), the “cleaved PARP positive nuclei fraction” value was 159%. For CN1CCN(c2ccc3nc(-c4c(N)c5c(F)cccc5[nH]c4=O)[nH]c3c2)CC1 [Dovitinib] + NC(=O)Nc1cc(-c2cccc(F)c2)sc1C(=O)N[C@H]1CCCNC1 [AZD7762] (first compound 0.1 µM, partner dose 0.02 µM), the “cleaved PARP positive nuclei fraction” value was 105%. In the case of O=C(O)[C@@H]1[O][Sb](=[O])([O][Sb]2(=[O])[O][C@H]([C@H](O)CO)[C@H](O)[C@H](C(=O)O)[O]2)[O][C@H]([C@H](O)CO)[C@@H]1O (stereo partly specified) [stibogluconate] + OCCn1cc(-c2cnc3nnn(Cc4ccc5ncccc5c4)c3n2)cn1 [PF04217903] (first compound 2 µM, partner dose 1 µM), the “cleaved PARP positive nuclei fraction” value is reported as 77.4%. In the case of CS(=O)(=O)CCNCc1ccc(-c2ccc3ncnc(Nc4ccc(OCc5cccc(F)c5)c(Cl)c4)c3c2)o1 [lapatinib] + COc1ccc(COc2ccc(Cc3cnc(N)nc3N)cc2OC)cc1 [GW2580] (first compound 0.8 µM, partner dose 1 µM), the “cleaved PARP positive nuclei fraction” value is reported as 132%.

Each compound was assayed on WM115 in the same assay as above. Details: library dose: low library concentration; 72 h.
For C=C(c1ccc(C(=O)O)cc1)c1cc2c(cc1C)C(C)(C)CCC2(C)C [Bexarotene] + CC(C)(C)c1cnc(CSc2cnc(NC(=O)C3CCNCC3)s2)o1 [SNS-032] (first compound 2 µM, partner dose 0.01 µM), the “cleaved PARP positive nuclei fraction” value was 57.5%. In the case of Cc1cc(Nc2cc(N3CCN(C)CC3)nc(/C=C/c3ccccc3)n2)n[nH]1 + COc1cc(N2CCC(N3CCN(C)CC3)CC2)ccc1Nc1ncc(Cl)c(Nc2ccccc2S(=O)(=O)C(C)C)n1 [NVP-TAE684] (first compound 0.04 µM, partner dose 0.08 µM), the “cleaved PARP positive nuclei fraction” value is reported as 85.3%. With O=C(O)c1ccc2c(c1)nc(Nc1cccc(Cl)c1)c1ccncc12 + Oc1nc(-c2ccc(C(F)(F)F)cc2)nc2c1CSCC2 [XAV939] (first compound 0.4 µM, partner dose 2 µM) the “cleaved PARP positive nuclei fraction” value was 158%. With Nc1ccn([C@@H]2O[C@H](CO)[C@@H](O)C2(F)F)c(=O)n1 [gemcitabine] + COC(=O)c1sccc1S(=O)(=O)Nc1ccc(Nc2ccccc2)cc1OC [GSK0660] (first compound 0.0004 µM, partner dose 1 µM) the “cleaved PARP positive nuclei fraction” value was 84.3%. For CNC(=O)c1cc(Oc2ccc(NC(=O)Nc3ccc(Cl)c(C(F)(F)F)c3)cc2)ccn1 [sorafenib] + CC(C)(C)c1cnc(CSc2cnc(NC(=O)C3CCNCC3)s2)o1 [SNS-032] (first compound 0.4 µM, partner dose 0.01 µM), the “cleaved PARP positive nuclei fraction” value was 131%. For Nc1ccn([C@@H]2O[C@H](CO)[C@@H](O)C2(F)F)c(=O)n1 [gemcitabine] + OCCn1cc(-c2cnc3nnn(Cc4ccc5ncccc5c4)c3n2)cn1 [PF04217903] (first compound 0.0004 µM, partner dose 1 µM), the “cleaved PARP positive nuclei fraction” value was 151%. With C=C(c1ccc(C(=O)O)cc1)c1cc2c(cc1C)C(C)(C)CCC2(C)C [Bexarotene] + Cc1ccc(NC(=O)c2cccc(N(C)C)c2)cc1NC(=O)c1ccc(O)cc1 [ZM336372] (first compound 2 µM, partner dose 2 µM) the “cleaved PARP positive nuclei fraction” value was 111%. In the case of Nc1nc(F)nc2c1ncn2[C@@H]1O[C@H](CO)[C@@H](O)[C@@H]1O [fludarabine] + C=CCn1c(=O)c2cnc(Nc3ccc(N4CCN(C)CC4)cc3)nc2n1-c1cccc(C(C)(C)O)n1 [MK1775] (first compound 0.2 µM, partner dose 0.02 µM), the “cleaved PARP positive nuclei fraction” value is reported as 320%. With Cc1cc(Nc2cc(N3CCN(C)CC3)nc(/C=C/c3ccccc3)n2)n[nH]1 + Cn1cc(/C=C2\C(=O)Nc3cccnc32)c2ccccc21 [GW441756] (first compound 0.04 µM, partner dose 0.4 µM) the “cleaved PARP positive nuclei fraction” value was 126%. For CC(C)C[C@H](NC(=O)[C@H](Cc1ccccc1)NC(=O)c1cnccn1)B(O)O [Bortezomib] + c1cc(-c2cnn3cc(-c4ccc(OCCN5CCCCC5)cc4)cnc23)ccn1 [Dorsomorphin] (first compound 0.001 µM, partner dose 0.4 µM), the “cleaved PARP positive nuclei fraction” value was 39.8%. In the case of Nc1ncn([C@H]2C[C@H](O)[C@@H](CO)O2)c(=O)n1 [decitabine] + Cc1cc([N+](=O)[O-])ccc1NS(=O)(=O)c1cc(Cl)ccc1Cl [FH535] (first compound 0.1 µM, partner dose 1 µM), the “cleaved PARP positive nuclei fraction” value is reported as 51.6%. Nc1ncn([C@H]2C[C@H](O)[C@@H](CO)O2)c(=O)n1 [decitabine] + O=C(Nc1cccc(Cl)c1)Nc1ncc(CCNc2ncnc3ccsc23)s1 [SNS314] (first compound 0.1 µM, partner dose 0.0008 µM) was tested, and the “cleaved PARP positive nuclei fraction” value was 239%. With CS(=O)(=O)CCNCc1ccc(-c2ccc3ncnc(Nc4ccc(OCc5cccc(F)c5)c(Cl)c4)c3c2)o1 [lapatinib] + COc1ccc2c(c1)CCC1C2CCC2(C)C(NCCCCCCN3C(=O)C=CC3=O)CCC12 [U73122] (first compound 0.8 µM, partner dose 0.4 µM) the “cleaved PARP positive nuclei fraction” value was 92.6%. With Cc1cc(Nc2cc(N3CCN(C)CC3)nc(/C=C/c3ccccc3)n2)n[nH]1 + CCCCCCCCCCCC1=C(O)C(=O)C=C(O)C1=O [Embelin] (first compound 0.04 µM, partner dose 1.2 µM) the “cleaved PARP positive nuclei fraction” value was 94.1%. In the case of C[C@@H](Oc1cc(-c2cnn(C3CCNCC3)c2)cnc1N)c1c(Cl)ccc(F)c1Cl [Crizotinib] + Cc1cc([N+](=O)[O-])ccc1NS(=O)(=O)c1cc(Cl)ccc1Cl [FH535] (first compound 0.2 µM, partner dose 1 µM), the “cleaved PARP positive nuclei fraction” value is reported as 192%. In the case of Nc1ccn([C@@H]2O[C@H](CO)[C@@H](O)C2(F)F)c(=O)n1 [gemcitabine] + O=C(Nc1cccc(Cl)c1)Nc1ncc(CCNc2ncnc3ccsc23)s1 [SNS314] (first compound 0.0004 µM, partner dose 0.0008 µM), the “cleaved PARP positive nuclei fraction” value is reported as 188%. With O=C(O)[C@@H]1[O][Sb](=[O])([O][Sb]2(=[O])[O][C@H]([C@H](O)CO)[C@H](O)[C@H](C(=O)O)[O]2)[O][C@H]([C@H](O)CO)[C@@H]1O (stereo partly specified) [stibogluconate] + CC(C)CCN1c2nc(Nc3cc(F)c(O)c(F)c3)ncc2N(C)C(=O)C1C [BID1870] (first compound 2 µM, partner dose 0.2 µM) the “cleaved PARP positive nuclei fraction” value was 107%. For C=C(c1ccc(C(=O)O)cc1)c1cc2c(cc1C)C(C)(C)CCC2(C)C [Bexarotene] + COc1ccc2c(c1)CCC1C2CCC2(C)C(NCCCCCCN3C(=O)C=CC3=O)CCC12 [U73122] (first compound 2 µM, partner dose 0.4 µM), the “cleaved PARP positive nuclei fraction” value was 56.9%. In the case of C=C(c1ccc(C(=O)O)cc1)c1cc2c(cc1C)C(C)(C)CCC2(C)C [Bexarotene] + Oc1nc(-c2ccc(C(F)(F)F)cc2)nc2c1CSCC2 [XAV939] (first compound 2 µM, partner dose 2 µM), the “cleaved PARP positive nuclei fraction” value is reported as 95.4%. CS(=O)(=O)CCNCc1ccc(-c2ccc3ncnc(Nc4ccc(OCc5cccc(F)c5)c(Cl)c4)c3c2)o1 [lapatinib] + NC(=O)Nc1cc(-c2cccc(F)c2)sc1C(=O)N[C@H]1CCCNC1 [AZD7762] (first compound 0.8 µM, partner dose 0.02 µM) was tested, and the “cleaved PARP positive nuclei fraction” value was 295%. O=C(O)[C@@H]1[O][Sb](=[O])([O][Sb]2(=[O])[O][C@H]([C@H](O)CO)[C@H](O)[C@H](C(=O)O)[O]2)[O][C@H]([C@H](O)CO)[C@@H]1O (stereo partly specified) [stibogluconate] + CN(NC(=O)CC(=O)NN(C)C(=S)c1ccccc1)C(=S)c1ccccc1 [STA4783] (first compound 2 µM, partner dose 0.006 µM) was tested, and the “cleaved PARP positive nuclei fraction” value was 77.8%. In the case of CCCS(=O)(=O)Nc1ccc(F)c(C(=O)c2c[nH]c3ncc(Cl)cc23)c1F + COc1ccc(COc2ccc(Cc3cnc(N)nc3N)cc2OC)cc1 [GW2580] (first compound 0.08 µM, partner dose 1 µM), the “cleaved PARP positive nuclei fraction” value is reported as 113%.
